Structures are written as SMILES. Some of the results follow. Shown are side measurements of this screen, not its main read-out; they come without a call. Compounds called inactive in the main read-out are mostly missing here. Words in brackets tell the shape of the fitted curve; partial curves, single points and poor fits give uncertain potencies.

A short description of the assay: qHTS Assay for Modulators of Lamin A Splicing. The conditions noted are these: HeLa LMNA splicing GFP/RFP minigene ratio, 48 h. The method in brief: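 S3 HeLa stable clones carrying a lamin A-EGFP splicing minigene plus DsRed2 were seeded at 600 cells/well in Opti-MEM with 2% FBS, pin-dosed and incubated 48 h at 37°C. Acumen cytometry (488 nm) gave the GFP/RFP total-intensity ratio.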

[1] abbreviates: measured here: GFP splicing reporter channel.
[2] abbreviates: measured here: RFP viability control channel.

With `COc1cc(/C=C/[N+](=O)[O-])ccc1OCc1cccc(C(=O)O)c1`, the AC50 under setting [1] was 14.1 µM [falling, single point] and the AC50 under setting [2] is 31.6 µM [rising, single point].
Consider `COc1cc(Nc2ncc3c(n2)CCN(Cc2cc(F)cc(F)c2)C3)cc(OC)c1`, for which the AC50 under setting [2] was 5.62 µM [rising, single point].
For `CCNC(=O)c1c(NC(=O)c2cc(-c3cc(C)ccc3O)n[nH]2)sc2c1CCCC2`, the AC50 was 0.0251 µM [rising, full curve] under setting [1] and 0.0158 µM [rising, full curve, poor fit] under setting [2].
Take `Cc1[nH]nc2c1C(c1cccc(O)c1)C1=C(CC(C)(C)CC1=O)N2` (stereo unspecified): the AC50 was 4.47 µM [falling, partial curve] under setting [1] and 2.82 µM [falling, partial curve, poor fit] under setting [2].
Consider `O=S(=O)(NCCc1csc2nc(-c3ccc(F)cc3)nn12)c1ccc(Oc2ccccc2)cc1`, for which the AC50 under setting [2] is 0.708 µM [falling, partial curve].
Take `COc1ccc(CNc2nc(-c3ccc(N(C)C)cc3)nc3ccccc23)c(OC)c1`: the AC50 is, setting by setting: under setting [1], 11.2 µM [falling, partial curve]; under setting [2], 11.2 µM [falling, partial curve].
Take `COc1ccc(NC(=O)C2CCCN2S(=O)(=O)c2cccc3cccnc23)c(OC)c1` (stereo unspecified): the AC50 under setting [2] is 35.5 µM [rising, single point].
For the molecule `CCOC(=O)c1[nH]c(C)c(CCC(=O)Nc2ccc(Br)c(C)c2)c1C`, under setting [1], the AC50 was 1.26 µM [rising, full curve].
With `Cc1ccc(N2CC(NC(=O)C3CC3)CC2=O)cc1C` (stereo unspecified), the AC50 under setting [1] is 0.00316 µM [falling, full curve, poor fit].
Take `O=C(N=NC(=O)c1ccco1)c1ccc2c(O)n(N3C(=O)c4ccccc4C3=O)c(O)c2c1`: the AC50 under setting [2] was 1.78 µM [falling, partial curve].
The same measure, in the same setting: in the case of `OC1C(O)C(O)C(O)C(O)C1O` (stereo unspecified) it was 10 µM [rising, partial curve, poor fit].
`O=C(CSc1n[nH]c(-c2ccccc2O)n1)N1CCCc2ccccc21`: the AC50 under setting [1] was 35.5 µM [falling, single point] and the AC50 under setting [2] was 35.5 µM [falling, single point].
On to `CC(=O)N1C(=O)/C(=C2\SC(=S)N(NC(=O)c3ccc(O)cc3)C2=O)c2ccccc21`, for which the AC50 is 7.94 µM [falling, partial curve] under setting [1] and 15.8 µM [falling, partial curve, poor fit] under setting [2].
Regarding `O=C(COC(=O)c1ccc(Sc2ccccc2)c([N+](=O)[O-])c1)NC1CCS(=O)(=O)C1` (stereo unspecified), the AC50 under setting [1] was 12.6 µM [rising, single point].
With `O=C(c1ccc(S(=O)(=O)NCc2ccco2)cc1)N1CCCC1`, the AC50 under setting [2] is 0.794 µM [falling, full curve, poor fit].
As to `CC(=O)Nc1ccc(S(=O)(=O)NC2(C(F)(F)F)C(=O)Nc3c2c(=O)[nH]c(=O)n3Cc2cccnc2)cc1` (stereo unspecified), the AC50 is 0.158 µM [falling, full curve, poor fit] under setting [1] and 0.178 µM [falling, full curve] under setting [2].
Regarding `COc1ccc(COc2cc(-c3cccc(OC)c3)nc3ccc(NC(=O)c4ccc(OC)cc4)cc23)cc1`, the AC50 runs as follows: under setting [1], 4.47 µM [rising, full curve]; under setting [2], 3.98 µM [rising, full curve].
`CCCCNC(=S)NNC(=O)c1csc(C(C)C)c1`: under setting [2], the AC50 is 31.6 µM [rising, single point].
Regarding `CCOC(=O)/C(C#N)=C\c1cc(C)n(-c2ccccc2)c1C`, under setting [1], the concentration at half-maximal activity (AC50) is 25.1 µM [rising, partial curve].
Consider `COc1ccc(Nc2ccnc(Nc3ccc(OC)cc3)n2)cc1`, for which the concentration at half-maximal activity (AC50) reads like this: under setting [1], 1 µM [rising, partial curve, poor fit]; under setting [2], 12.6 µM [rising, partial curve].
Consider `CCOC(=O)c1cnc(N2CCN(c3ccc(C)cc3C)CC2)c2ccccc12`, for which, under setting [2], the AC50 was 35.5 µM [rising, single point].
For `CCOC(=O)C1Cn2c(nc3c(c2=O)C2(CCCC2)Cc2ccccc2-3)S1` (stereo unspecified), the AC50 was 35.5 µM [rising, single point] under setting [1] and 35.5 µM [rising, single point] under setting [2].
On to `Cn1c(=O)c2c(SCC(=O)Nc3ccc(F)cc3F)nc(C3CCCC3)nc2n(C)c1=O`, for which, under setting [2], the AC50 is 35.5 µM [falling, single point].
Still for that read-out and setting: in the case of `CCOCc1cnc(C)nc1NCC(=O)c1c(C)[nH]c2cc(C)ccc12` it was 11.2 µM [rising, partial curve].
`Cc1ccc(C)c(-n2c3nc(=O)[nH]c(=O)c-3cc3cc([N+](=O)[O-])ccc32)c1`: the AC50 under setting [1] is 28.2 µM [falling, single point].
On to `C=CCNC(=S)Nc1cc(C)ccn1`, for which the AC50 under setting [1] is 35.5 µM [rising, partial curve].
Take `Cc1sc2nc(CN(C(=O)c3cccs3)C3CCCC3)[nH]c(=O)c2c1C`: the AC50 is, setting by setting: under setting [1], 12.6 µM [rising, partial curve, poor fit]; under setting [2], 12.6 µM [rising, partial curve].
Regarding `Cn1c(=O)c2[nH]c(Nc3ccccc3)nc2n(C)c1=O`, under setting [2], the concentration at half-maximal activity (AC50) is 11.2 µM [rising, single point].
`N#CCSc1nc2cc(C(=O)N3CCC(C(N)=O)CC3)ccc2c2nc3ccccc3n12`: under setting [1], the AC50 is 8.91 µM [rising, partial curve].
For `CN(c1ccccc1)S(=O)(=O)c1ccc(Cl)c(C(=O)NCCc2c[nH]c3ccccc23)c1`, the AC50 was 3.55 µM [rising, full curve] under setting [1] and 12.6 µM [rising, partial curve] under setting [2].
For the molecule `Cc1cc(C)nc(NC(=O)c2ccc([N+](=O)[O-])o2)n1`, the AC50 is 10 µM [falling, partial curve, poor fit] under setting [1] and 14.1 µM [falling, partial curve] under setting [2].
As to `C=CCn1c(SCc2nc3scc(-c4ccccc4)c3c(=O)[nH]2)nnc1-c1ccccc1F`, the AC50 under setting [2] was 17.8 µM [rising, single point].
With `COc1ccc(OC)c(/C=C/C(=O)OCC(=O)Nc2cccc(C(C)=O)c2)c1`, the AC50 is 35.5 µM [rising, single point] under setting [1] and 11.2 µM [rising, partial curve, poor fit] under setting [2].
As to `O=C(O)c1cc(-c2ccc(Cl)cc2)n(-c2ccc(Cl)cc2)n1`, under setting [1], the AC50 is 2.51 µM [rising, partial curve, poor fit].
With `CCCSC1=C(C#N)C(c2ccc(Cl)cc2Cl)CC(=O)N1` (stereo unspecified), the AC50 under setting [1] was 14.1 µM [rising, single point].
Turning to `O=C(CNC(=O)c1ccccc1F)N/N=C/c1cc(Br)ccc1OC(=O)/C=C/c1ccco1`, the AC50 by setting is: under setting [1], 11.2 µM [rising, single point]; under setting [2], 25.1 µM [rising, single point].
As for `CC1(C(=O)Nc2ccccc2)Cc2ccccc2C(=O)O1` (stereo unspecified), the AC50 under setting [2] is 0.0562 µM [falling, full curve, poor fit].
On to `COc1ccc(/C=C(\C#N)C(=O)NC2CCS(=O)(=O)C2)cc1OC` (stereo unspecified), for which the AC50 under setting [2] was 20 µM [rising, single point].
For the molecule `COc1cc2c(cc1C(F)(F)F)N(C(=O)Nc1cc(F)cc(-c3cccnc3)c1)CC2`, the AC50 reads like this: under setting [1], 11.2 µM [falling, partial curve]; under setting [2], 10 µM [falling, partial curve].
Regarding `COc1ccc(-c2cc(-c3n[nH]c(=S)n3-c3cc(OC)ccc3OC)[nH]n2)cc1`, the AC50 is 10 µM [rising, partial curve] under setting [1] and 14.1 µM [rising, single point] under setting [2].
With `O=C1C2C3C=CC(C3=C(c3ccccc3)c3ccccc3)C2C(=O)N1Cc1ccccc1` (stereo unspecified), the AC50 is, setting by setting: under setting [1], 5.62 µM [rising, single point]; under setting [2], 4.47 µM [rising, full curve].
With `Cc1nc(NC(=O)c2cccs2)ccc1Br`, under setting [2], the AC50 is 0.251 µM [rising, full curve, poor fit].
On the same count and under the same terms, the result for `COC(=O)c1ccccc1NC(=O)C1CCCN(S(=O)(=O)c2ccc(F)cc2)C1` (stereo unspecified) reads 35.5 µM [rising, single point].
Same read-out and setting: the result for `O=C(CSc1nc2ccccc2[nH]1)Nc1nc(-c2ccccc2)c(-c2ccccc2)o1` reads 10 µM [rising, partial curve]; that for `O/N=C(\c1ccc2c(c1)OCCO2)C1CCCCC1`, 3.16 µM [rising, single point]; that for `CCOc1cc(/C=N/Nc2nc(-c3cccc(S(=O)(=O)N4CCCC4)c3)cs2)ccc1O`, 12.6 µM [rising, single point].
As to `CCC(Sc1nc(C)cc(C)n1)C(=O)NC1=NN=C(c2ccc(C)cc2)CS1` (stereo unspecified), the AC50 was 35.5 µM [falling, single point] under setting [1] and 35.5 µM [falling, single point] under setting [2].
Turning to `CCCc1cc(=O)n2c([nH]c3ccccc32)c1C#N`, the AC50 under setting [2] was 5.01 µM [rising, partial curve].
For the molecule `CC(C)NS(=O)(=O)c1ccc(CCC(=O)Nc2cc(Cl)ccc2Oc2ccccc2)cc1`, the AC50 reads like this: under setting [1], 11.2 µM [rising, partial curve, poor fit]; under setting [2], 15.8 µM [rising, single point].
On to `CN1C(=O)C2(OCC(COc3ccc(Cl)cc3)O2)c2ccccc21` (stereo unspecified), for which, under setting [2], the AC50 was 15.8 µM [rising, single point].
Turning to `CCN(CC)S(=O)(=O)c1ccc(N2CCOCC2)c(NS(=O)(=O)c2ccc(C)cc2)c1`, the AC50 is 1.78 µM [rising, full curve, poor fit] under setting [1] and 2.82 µM [rising, full curve, poor fit] under setting [2].
Take `COC(=O)c1ccc(NC(=S)N2CCN(Cc3ccccc3OC)CC2)cc1`: the AC50 under setting [1] is 0.282 µM [falling, partial curve, poor fit] and the AC50 under setting [2] was 0.316 µM [falling, partial curve, poor fit].
`COc1ccccc1CNc1nc(-c2cccc(NS(C)(=O)=O)c2)nc2ccccc12`: the AC50 by setting is: under setting [1], 25.1 µM [falling, single point]; under setting [2], 35.5 µM [falling, single point].

The AC50 is the midpoint of the concentration-response curve, whichever way the signal moves.

(Values after PubChem BioAssay AID1487 (National Center for Advancing Translational Sciences (NCATS), 2009).)
